Laboratory results taken from publication PMC7819943, “Rice protein-binding microarrays: a tool to detect cis-acting elements near promoter regions in rice”.
Some of the results follow.

Amino acid sequences for entries named in this document (tags omitted).
UniProt Q0JBA9, entry or part of it: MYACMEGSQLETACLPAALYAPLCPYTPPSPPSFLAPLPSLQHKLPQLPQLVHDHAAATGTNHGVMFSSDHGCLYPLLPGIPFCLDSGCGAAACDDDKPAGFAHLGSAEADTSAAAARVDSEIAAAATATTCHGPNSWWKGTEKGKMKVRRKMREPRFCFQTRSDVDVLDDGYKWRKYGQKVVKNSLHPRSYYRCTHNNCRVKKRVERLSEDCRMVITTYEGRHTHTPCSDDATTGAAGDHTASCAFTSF

Molecular target: OsWRKY34 (Oryza sativa, UniProt Q0JBA9 1-250)
Test: protein-binding microarray (RPBM); PBS, 2% BSA, 51.3 ng/ul salmon testes DNA, 50 uM zinc acetate, 200 nM TF, 25 C, 1 h; high values mean tight binding
Conditions: protein: recombinant; tags: N-terminal polyhistidine and DsRed monomer fusion (pET32a); label: CyDye5-dUTP incorporated in the synthesized complementary strand; 3' TTTTT single-stranded linker to array surface; dsDNA, one strand shown
Summary of the method: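 Binding signal here means per-feature fluorescence intensity in arbitrary units. The values were read on an Axon 4000B scanner after a custom Agilent array, double-stranded by primer extension with Cy5-dUTP, was incubated with 200 nM protein at 25 °C for 1 h in PBS with 2% BSA, salmon testes DNA and 50 µM zinc acetate, then washed. The proteins were transcription factors with an N-terminal polyhistidine tag and DsRed, expressed in E. coli BL21-CodonPlus and purified on Ni–NTA.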

Row | Sequence | binding signal
1 | ACTAATCGATTTGGACAGTTTGCATCGTAATCTCCACGGCCGGAGTCACCTAGTGCAG | 8210 fluorescence intensity (a.u.)
2 | TGGTCACTGACCCCAGGTCGATCTCTCTCGTCTTCGTTTTCGGAGTCACCTAGTGCAG | 9710 fluorescence intensity (a.u.)
3 | TCGCCTCGTAACCGCCTGATTAATCCTCCGCTCCTGCAAGCGGAGTCACCTAGTGCAG | 9510 fluorescence intensity (a.u.)
4 | ATGCCATGAAAATAATCATATTATCATATATGCGTCCAATCGGAGTCACCTAGTGCAG | 8220 fluorescence intensity (a.u.)
5 | CGCCGCCTCGGCATCCGCGCCCACTCGTCGCCGCCTCGCCCGGAGTCACCTAGTGCAG | 11000 fluorescence intensity (a.u.)
6 | GGCTGCTATTATATACTCTCTCTCCATCCACAAAAGTTACCGGAGTCACCTAGTGCAG | 8580 fluorescence intensity (a.u.)
7 | GTGCCGGGCGGCCCACATGGTCTATAGCTGTTCCTGGATTCGGAGTCACCTAGTGCAG | 10600 fluorescence intensity (a.u.)
8 | TCTCGATCCTTCCGCCCGCCCTTATCTCTTCTTTTTTCCACGGAGTCACCTAGTGCAG | 8980 fluorescence intensity (a.u.)
9 | TCTATTTGTTGTAATAGATACTCTCTATTTCGTGTTATAACGGAGTCACCTAGTGCAG | 9500 fluorescence intensity (a.u.)
10 | TCCCTCCGCTGCCGCCGCCATCTACGCTCGCTTCCTCACGCGGAGTCACCTAGTGCAG | 9140 fluorescence intensity (a.u.)
11 | CACCACACGTCACGCTTCCACCTCCACCTCCACCTCACTGCGGAGTCACCTAGTGCAG | 11900 fluorescence intensity (a.u.)
12 | AGAGCAGTTTTTCTTTTCATTTCGTAAATTTCAGTCACTTCGGAGTCACCTAGTGCAG | 9400 fluorescence intensity (a.u.)
13 | TCCCGTTTTCCGTACCATTACTTAATCTTCATCTTATTAGCGGAGTCACCTAGTGCAG | 12200 fluorescence intensity (a.u.)
14 | ACATAGCTTCATCTTTTGGTGGTTTAATAACTTTCTCTTCCGGAGTCACCTAGTGCAG | 9870 fluorescence intensity (a.u.)
15 | CCTGCATGGCCTCTGCGCCACCTTGCTGCTGCCCCGCCGACGGAGTCACCTAGTGCAG | 8210 fluorescence intensity (a.u.)
16 | ATTGATATCAAACCGTTTCTTTTGTCATATTCGTCATTTCCGGAGTCACCTAGTGCAG | 17700 fluorescence intensity (a.u.)
17 | TAACTTTTTCTTCAAACTTCCAATTTTTCCATCACATCAACGGAGTCACCTAGTGCAG | 8400 fluorescence intensity (a.u.)
18 | ATTCAGATTGGCTGGTATTTGCGCGTACAATATATTATAACGGAGTCACCTAGTGCAG | 8450 fluorescence intensity (a.u.)
19 | TACCTACACAGCATTATAGTGATATTGATTTTTCTTACCTCGGAGTCACCTAGTGCAG | 8850 fluorescence intensity (a.u.)
20 | CGGTCAAACGTTTGATGTTACACCCAAAATTTTTCTTTTCCGGAGTCACCTAGTGCAG | 8330 fluorescence intensity (a.u.)
21 | CAAAGGTTACCACCATTATTCTCTTCTCTCCTCCTAGTTTCGGAGTCACCTAGTGCAG | 8860 fluorescence intensity (a.u.)
22 | TTATCTCTGTTGTTTAACGAAAACACTCGTATATATAGTCCGGAGTCACCTAGTGCAG | 8400 fluorescence intensity (a.u.)
23 | AGGACGGGGAAGATTCGTGCCCCGATTTTTTCGTGTTCGACGGAGTCACCTAGTGCAG | 8430 fluorescence intensity (a.u.)
24 | ACTTCAGCTATTGCCCGGTCACTCCCGATCAATTCCTGCCCGGAGTCACCTAGTGCAG | 10300 fluorescence intensity (a.u.)
25 | GCTCCCGCCCAAGACGAAGCTGACCACCATCACCTTCAGCCGGAGTCACCTAGTGCAG | 9980 fluorescence intensity (a.u.)
26 | GGATTGGATTTTTTTTGCCGCGCGGAACCAGCGCCGTACGCGGAGTCACCTAGTGCAG | 8110 fluorescence intensity (a.u.)
27 | CCAACCTCCGCCACCGCGGCCTCGAGCTGGTATAGAGCTCCGGAGTCACCTAGTGCAG | 8710 fluorescence intensity (a.u.)

Row | Sequence | binding signal
28 | AAGTAGATTCTCTCATTTATTTATACATTTACACTGTTCACGGAGTCACCTAGTGCAG | 8770 fluorescence intensity (a.u.)
29 | GTATTGTGGGTTAGGGATGTCGATTATACTCGACGTAAAGCGGAGTCACCTAGTGCAG | 9160 fluorescence intensity (a.u.)
30 | CACATGGGCCACTCAGCTGGTCACTTCCTTCTCTCCCACTCGGAGTCACCTAGTGCAG | 9720 fluorescence intensity (a.u.)
31 | AATTCCATACGCCTCAATCCATAATTTATATAGTATTTTTCGGAGTCACCTAGTGCAG | 8530 fluorescence intensity (a.u.)
32 | GGTCTACTCCGGTTTTTATATTTTTAATTAAATTTTTATACGGAGTCACCTAGTGCAG | 8120 fluorescence intensity (a.u.)
33 | GTCCAGATACTAAGGTGTATGGTATTATCGGAAAACCTGTCGGAGTCACCTAGTGCAG | 24300 fluorescence intensity (a.u.)
34 | ATACGCTACATTCACATTCATACTCAGAAATGAGATTTTCCGGAGTCACCTAGTGCAG | 9000 fluorescence intensity (a.u.)
35 | CCCATACCAATTTTATTTTTTCAGCGTACATACAATTAAACGGAGTCACCTAGTGCAG | 9140 fluorescence intensity (a.u.)
36 | CAGTTTTTTTACAAAATTTTGACAATATATTATCCTATTTCGGAGTCACCTAGTGCAG | 8550 fluorescence intensity (a.u.)
37 | GAAATGATGGCTTTCTTTGATTTCCTTTGCTAGCTTACTTCGGAGTCACCTAGTGCAG | 9010 fluorescence intensity (a.u.)
38 | CCAGAGAGCTCTCGTCGCGCGCGCGCACTTTTCTCCTCTCCGGAGTCACCTAGTGCAG | 9260 fluorescence intensity (a.u.)
39 | TAACCCACAACCTACACTGCTAACTGTATCTGTGTTATGACGGAGTCACCTAGTGCAG | 8230 fluorescence intensity (a.u.)
40 | AGGATGGATGGGTGTGCTGTATATACTTGTTGTAATTAAGCGGAGTCACCTAGTGCAG | 9800 fluorescence intensity (a.u.)
41 | CCTGCATCCGTTAACAACACTTACCAAAATTTAGTCGCACCGGAGTCACCTAGTGCAG | 8780 fluorescence intensity (a.u.)
42 | AAAGCCTGTCCTTTTCCAAGATTTTCATGCCCAAACTCAACGGAGTCACCTAGTGCAG | 8540 fluorescence intensity (a.u.)
43 | TGCTCGAAATTGAGTGTGTTCTATCTACTGTAGGGTTGTGCGGAGTCACCTAGTGCAG | 8220 fluorescence intensity (a.u.)
44 | TTACAATTGTATTCCTGTCAGAATCCTGTGTTTTTCCTATCGGAGTCACCTAGTGCAG | 9430 fluorescence intensity (a.u.)
45 | AGATATACCGTTGTTGCATTTCACCTTAAAATATTTCCAACGGAGTCACCTAGTGCAG | 8550 fluorescence intensity (a.u.)
46 | CCAGAAATTCTCTTATCCTTCTTTTCTTTCTCTTTTTCTTCGGAGTCACCTAGTGCAG | 10600 fluorescence intensity (a.u.)
47 | CTTCCGGGAGCGCTTCCTGTTGTGTACTTGTGTGATCACACGGAGTCACCTAGTGCAG | 8880 fluorescence intensity (a.u.)
48 | AACCTTGTCCCTTTTCCCCGCAAATCCTTGCCGCCTTTTGCGGAGTCACCTAGTGCAG | 9010 fluorescence intensity (a.u.)
49 | GTTTTTTTCGGTCCACATTTGATGCTCCATACATGTGTCTCGGAGTCACCTAGTGCAG | 8730 fluorescence intensity (a.u.)
50 | TTCGATCATTTTGCTATATAACTTTGTTTCTATAATTTGACGGAGTCACCTAGTGCAG | 8030 fluorescence intensity (a.u.)
51 | GTCCATCTGCGTCTCTCCTAATCTCATCCGTCCGCTGTACCGGAGTCACCTAGTGCAG | 12200 fluorescence intensity (a.u.)
52 | CTCTCTATCATTCTCCGTTGCCACGCTAATCGCTCAGCGCCGGAGTCACCTAGTGCAG | 9330 fluorescence intensity (a.u.)
53 | CACGCTGCACTGCACCGCTTTACGCCATCTCGCCAATTTTCGGAGTCACCTAGTGCAG | 10300 fluorescence intensity (a.u.)
54 | CCACTGCTTCGTCATCGTCTACGCCCTCCTCATCGTCCACCGGAGTCACCTAGTGCAG | 9440 fluorescence intensity (a.u.)
